The values that follow come from patent US12491217B2, “Compositions and methods for promoting healthy neural development in an unborn baby” (The Regents of the University of California, priority 2019, dated 2025).

This data set in a line: Metabolomics of fetal brain at E14.5. Type of data set: in vivo, C57Bl/6J mice. To be noted: E14.5 fetal brain metabolite level; for fold of change ABX/SPF: ANOVA contrast ABX vs SPF; for fold of change GF/ABX: ANOVA contrast GF vs ABX; for fold of change GF/SPF: ANOVA contrast GF vs SPF; for fold of change GF/Sp: ANOVA contrast GF vs Sp; for fold of change Sp/ABX: ANOVA contrast Sp vs ABX; for fold of change Sp/SPF: ANOVA contrast Sp vs SPF.

For the compound `CC/C=C\C/C=C\C/C=C\C/C=C\C/C=C\C/C=C\CCC(=O)OCC(O)CO` (stereo not drawn) [compound 2374], the “fold of change ABX/SPF” value was determined as 1.03, the “fold of change GF/ABX” value is reported as 0.57, the “fold of change GF/SPF” value amounted to 0.58 and the “fold of change GF/Sp” value is 1.34. Also, the “fold of change Sp/ABX” value worked out at 0.43 and the “fold of change Sp/SPF” value came out at 0.44.
For the compound `CCCCCCCCCCCCCC(=O)OC(CO)CO` [compound 2375], the “fold of change ABX/SPF” value is on record as 0.80, the “fold of change GF/ABX” value is 0.91, the “fold of change GF/SPF” value was 0.73 and the “fold of change GF/Sp” value turned out to be 0.98. Further, the “fold of change Sp/ABX” value amounted to 0.94 and the “fold of change Sp/SPF” value amounted to 0.75.
With `CCCCCCCCCCCCCCCC(=O)OC(CO)CO` [compound 2376], the “fold of change ABX/SPF” value came out at 0.74, the “fold of change GF/ABX” value came out at 0.76, the “fold of change GF/SPF” value is 0.56 and the “fold of change GF/Sp” value came out at 0.94. Moreover, the “fold of change Sp/ABX” value came to 0.81 and the “fold of change Sp/SPF” value is recorded as 0.60.
For the compound `CCCCCCCC/C=C\CCCCCCCC(=O)OC(CO)CO` [compound 2379], the “fold of change ABX/SPF” value is 0.81, the “fold of change GF/ABX” value amounted to 0.81, the “fold of change GF/SPF” value turned out to be 0.65 and the “fold of change GF/Sp” value is given as 0.89. Moreover, the “fold of change Sp/ABX” value is given as 0.91 and the “fold of change Sp/SPF” value was 0.74.
For `CCCCC/C=C\C/C=C\C/C=C\C/C=C\CCCC(=O)OC(CO)CO` [compound 2381], the “fold of change ABX/SPF” value is 0.81, the “fold of change GF/ABX” value is listed as 0.86, the “fold of change GF/SPF” value was 0.70 and the “fold of change GF/Sp” value is listed as 1.59. In addition, the “fold of change Sp/ABX” value came out at 0.54 and the “fold of change Sp/SPF” value was found to be 0.44.
Turning to `CC/C=C\C/C=C\C/C=C\C/C=C\C/C=C\C/C=C\CCC(=O)OC(CO)CO` [compound 2383], the “fold of change ABX/SPF” value turned out to be 0.99, the “fold of change GF/ABX” value amounted to 0.57, the “fold of change GF/SPF” value is 0.56 and the “fold of change GF/Sp” value is given as 1.15. The “fold of change Sp/ABX” value is recorded as 0.49 and the “fold of change Sp/SPF” value was 0.49.
Take `CCCCCCCCCCCCCCCC(=O)OCC(CO)OC(=O)CCCCCCCCCCCCCCC` (stereo not drawn) [compound 2407]: the “fold of change ABX/SPF” value was determined as 0.81, the “fold of change GF/ABX” value came to 1.11, the “fold of change GF/SPF” value is on record as 0.90 and the “fold of change GF/Sp” value is 1.10. For the same compound, the “fold of change Sp/ABX” value is 1.01 and the “fold of change Sp/SPF” value is reported as 0.81.
For `CCCCCCCCC=CCCCCCCCC(=O)OC(CO)COC(=O)CCCCCCCCCCCCCCC` (stereo not drawn) [compound 2411], the “fold of change ABX/SPF” value is reported as 0.83, the “fold of change GF/ABX” value is 0.96, the “fold of change GF/SPF” value is 0.79 and the “fold of change GF/Sp” value amounted to 0.97. For the same compound, the “fold of change Sp/ABX” value stood at 0.98 and the “fold of change Sp/SPF” value is reported as 0.81.
Turning to `CCCCCC=CCC=CCCCCCCCC(=O)OC(CO)COC(=O)CCCCCCCCCCCCCCC` (stereo not drawn) [compound 2413], the “fold of change ABX/SPF” value is 0.84, the “fold of change GF/ABX” value was 0.86, the “fold of change GF/SPF” value is listed as 0.72 and the “fold of change GF/Sp” value stood at 1.15. In addition, the “fold of change Sp/ABX” value came to 0.75 and the “fold of change Sp/SPF” value was determined as 0.63.
Consider `CCCCCC=CCC=CCC=CCC=CCCCC(=O)OC(CO)COC(=O)CCCCCCCCCCCCCCC` (stereo not drawn) [compound 2419], for which the “fold of change ABX/SPF” value amounted to 1.04, the “fold of change GF/ABX” value was 0.73, the “fold of change GF/SPF” value is given as 0.76 and the “fold of change GF/Sp” value is given as 0.97. Further, the “fold of change Sp/ABX” value is 0.75 and the “fold of change Sp/SPF” value is reported as 0.78.
`CCCCCC=CCC=CCC=CCC=CCCCC(=O)OC(CO)COC(=O)CCCCCCCCCCCCCCC` (stereo not drawn) [compound 2420]: the “fold of change ABX/SPF” value was determined as 0.84, the “fold of change GF/ABX” value came out at 0.91, the “fold of change GF/SPF” value amounted to 0.76 and the “fold of change GF/Sp” value is given as 0.97. Besides, the “fold of change Sp/ABX” value is reported as 0.93 and the “fold of change Sp/SPF” value is on record as 0.78.
Take `CCC=CCC=CCC=CCC=CCC=CCC=CCCC(=O)OC(CO)COC(=O)CCCCCCCCCCCCCCC` (stereo not drawn) [compound 2422]: the “fold of change ABX/SPF” value worked out at 0.96, the “fold of change GF/ABX” value worked out at 0.63, the “fold of change GF/SPF” value was found to be 0.61 and the “fold of change GF/Sp” value came to 0.85. Moreover, the “fold of change Sp/ABX” value was 0.74 and the “fold of change Sp/SPF” value was found to be 0.71.
For `CCC=CCC=CCC=CCC=CCC=CCC=CCCC(=O)OC(CO)COC(=O)CCCCCCCCCCCCCCC` (stereo not drawn) [compound 2423], the “fold of change ABX/SPF” value is recorded as 0.62, the “fold of change GF/ABX” value was determined as 0.31, the “fold of change GF/SPF” value was 0.19 and the “fold of change GF/Sp” value stood at 0.47. For the same compound, the “fold of change Sp/ABX” value is listed as 0.66 and the “fold of change Sp/SPF” value is given as 0.41.
Turning to `CCCCCCCCC=CCCCCCCCC(=O)OCC(CO)OC(=O)CCCCCCCC=CCCCCCCCC` (stereo not drawn) [compound 2429], the “fold of change ABX/SPF” value was 0.91, the “fold of change GF/ABX” value is 0.90, the “fold of change GF/SPF” value is on record as 0.82 and the “fold of change GF/Sp” value is 0.97. Also, the “fold of change Sp/ABX” value worked out at 0.93 and the “fold of change Sp/SPF” value was 0.85.
In the case of `CCCCCC=CCC=CCCCCCCCC(=O)OC(CO)COC(=O)CCCCCCCC=CCCCCCCCC` (stereo not drawn) [compound 2431], the “fold of change ABX/SPF” value is listed as 0.85, the “fold of change GF/ABX” value is on record as 0.83, the “fold of change GF/SPF” value is on record as 0.71 and the “fold of change GF/Sp” value worked out at 1.22. Also, the “fold of change Sp/ABX” value is reported as 0.68 and the “fold of change Sp/SPF” value stood at 0.58.
Take `CCCCCC=CCC=CCCCCCCCC(=O)OC(CO)COC(=O)CCCCCCCC=CCCCCCCCC` (stereo not drawn) [compound 2432]: the “fold of change ABX/SPF” value is on record as 0.96, the “fold of change GF/ABX” value was found to be 0.87, the “fold of change GF/SPF” value turned out to be 0.84 and the “fold of change GF/Sp” value is reported as 1.17. Also, the “fold of change Sp/ABX” value is 0.74 and the “fold of change Sp/SPF” value is recorded as 0.72.
With `CCCCCC=CCC=CCC=CCC=CCCCC(=O)OC(CO)COC(=O)CCCCCCCC=CCCCCCCCC` (stereo not drawn) [compound 2445], the “fold of change ABX/SPF” value is on record as 0.89, the “fold of change GF/ABX” value is 0.88, the “fold of change GF/SPF” value turned out to be 0.78 and the “fold of change GF/Sp” value stood at 1.02. Moreover, the “fold of change Sp/ABX” value came out at 0.86 and the “fold of change Sp/SPF” value stood at 0.77.
In the case of `CCCCCCCCCCCCCCCC(O)C(N)CO` (stereo not drawn) [compound 2474], the “fold of change ABX/SPF” value was 0.84, the “fold of change GF/ABX” value was 0.95, the “fold of change GF/SPF” value is 0.79 and the “fold of change GF/Sp” value was found to be 0.93. For the same compound, the “fold of change Sp/ABX” value is listed as 1.02 and the “fold of change Sp/SPF” value was determined as 0.86.
For `CCCCCCCCCCCCCCCC(=O)N[C@@H](CO)[C@H](O)CCCCCCCCCCCCCCC` [compound 2480], the “fold of change ABX/SPF” value came out at 0.83, the “fold of change GF/ABX” value worked out at 0.84, the “fold of change GF/SPF” value worked out at 0.70 and the “fold of change GF/Sp” value came out at 0.91. Further, the “fold of change Sp/ABX” value turned out to be 0.92 and the “fold of change Sp/SPF” value worked out at 0.77.
For `CCCCCCCCCCCCCCCCCC(=O)N[C@@H](CO)[C@H](O)CCCCCCCCCCCCCCC` [compound 2481], the “fold of change ABX/SPF” value was determined as 0.79, the “fold of change GF/ABX” value worked out at 0.83, the “fold of change GF/SPF” value is reported as 0.65 and the “fold of change GF/Sp” value came out at 0.78. Besides, the “fold of change Sp/ABX” value came out at 1.06 and the “fold of change Sp/SPF” value came out at 0.84.
On to `CCCCCCCCCCCCC/C=C/[C@@H](O)[C@H](CO)NC(=O)CCCCCCCCCCCCCCC` [compound 2488], for which the “fold of change ABX/SPF” value worked out at 0.83, the “fold of change GF/ABX” value stood at 0.70, the “fold of change GF/SPF” value was 0.58 and the “fold of change GF/Sp” value was found to be 0.80. Moreover, the “fold of change Sp/ABX” value is 0.87 and the “fold of change Sp/SPF” value was 0.72.
`CCCCCCCCCCCCC/C=C/[C@@H](O)[C@H](CO)NC(=O)CCCCCCCCCCCCCCCCC` [compound 2491]: the “fold of change ABX/SPF” value stood at 0.72, the “fold of change GF/ABX” value was determined as 0.94, the “fold of change GF/SPF” value stood at 0.68 and the “fold of change GF/Sp” value is reported as 0.86. For the same compound, the “fold of change Sp/ABX” value turned out to be 1.09 and the “fold of change Sp/SPF” value worked out at 0.79.
`CCCCCCCCCCCCC/C=C/[C@@H](O)[C@H](CO)NC(=O)CCCCCCCCCCCCCCCCCCC` [compound 2493]: the “fold of change ABX/SPF” value was 0.72, the “fold of change GF/ABX” value was determined as 0.91, the “fold of change GF/SPF” value was determined as 0.65 and the “fold of change GF/Sp” value amounted to 0.87. For the same compound, the “fold of change Sp/ABX” value worked out at 1.05 and the “fold of change Sp/SPF” value came out at 0.75.
For the compound `CCCCCCCCCCCCCCCCCC(=O)NC(COC1OC(CO)C(O)C(O)C1O)C(O)CCCCCCCCCCCCCCC` (stereo not drawn) [compound 2520], the “fold of change ABX/SPF” value came to 0.94, the “fold of change GF/ABX” value stood at 0.95, the “fold of change GF/SPF” value is listed as 0.89 and the “fold of change GF/Sp” value is on record as 1.03. Moreover, the “fold of change Sp/ABX” value is 0.92 and the “fold of change Sp/SPF” value was 0.87.
Take `CCCCCCCCCCCCCC=CC(O)C(COC1OC(CO)C(O)C(O)C1O)NC(=O)CCCCCCCCCCCCCCC` (stereo not drawn) [compound 2522]: the “fold of change ABX/SPF” value was 1.08, the “fold of change GF/ABX” value is recorded as 1.02, the “fold of change GF/SPF” value is 1.11 and the “fold of change GF/Sp” value is 1.16. For the same compound, the “fold of change Sp/ABX” value is reported as 0.88 and the “fold of change Sp/SPF” value was 0.95.
